The target in this assay is HIF1-α (mouse (endogenous in Nes+ cells of Nestin-GFP mice)) (UniProt Q61221). Description: co-IP; reciprocal: endogenous proteins from Nes+ cell lysates precipitated with anti-HIF1-α antibody; Pierce IP lysis buffer with protease inhibitors, overnight at 4°C, Dynabeads Protein G 1 h, immunoblot.

Protein sequences, listed by entry. Tags and fused reporters are not part of them.
UniProt Q61221: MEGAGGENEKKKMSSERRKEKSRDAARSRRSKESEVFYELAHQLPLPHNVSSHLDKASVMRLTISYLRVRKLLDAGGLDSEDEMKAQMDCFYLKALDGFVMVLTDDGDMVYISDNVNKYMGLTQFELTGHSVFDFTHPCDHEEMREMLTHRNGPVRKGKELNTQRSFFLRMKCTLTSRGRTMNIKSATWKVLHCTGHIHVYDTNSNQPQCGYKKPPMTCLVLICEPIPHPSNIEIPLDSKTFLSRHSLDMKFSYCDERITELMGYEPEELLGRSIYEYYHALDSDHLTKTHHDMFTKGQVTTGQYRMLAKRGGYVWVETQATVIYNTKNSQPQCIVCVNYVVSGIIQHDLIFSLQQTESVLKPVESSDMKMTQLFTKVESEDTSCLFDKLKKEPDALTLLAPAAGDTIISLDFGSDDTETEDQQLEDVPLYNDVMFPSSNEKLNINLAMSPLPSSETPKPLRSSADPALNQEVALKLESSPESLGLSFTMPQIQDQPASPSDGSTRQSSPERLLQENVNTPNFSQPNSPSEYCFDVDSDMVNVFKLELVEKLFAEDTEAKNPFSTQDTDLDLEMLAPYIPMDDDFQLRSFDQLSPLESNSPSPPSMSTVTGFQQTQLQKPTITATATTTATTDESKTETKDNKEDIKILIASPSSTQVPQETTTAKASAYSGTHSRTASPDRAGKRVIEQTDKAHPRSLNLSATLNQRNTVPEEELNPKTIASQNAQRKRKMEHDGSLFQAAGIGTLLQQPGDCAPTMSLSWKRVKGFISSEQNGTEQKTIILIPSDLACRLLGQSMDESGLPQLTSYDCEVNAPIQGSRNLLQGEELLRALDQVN
UniProt Q6P5H2: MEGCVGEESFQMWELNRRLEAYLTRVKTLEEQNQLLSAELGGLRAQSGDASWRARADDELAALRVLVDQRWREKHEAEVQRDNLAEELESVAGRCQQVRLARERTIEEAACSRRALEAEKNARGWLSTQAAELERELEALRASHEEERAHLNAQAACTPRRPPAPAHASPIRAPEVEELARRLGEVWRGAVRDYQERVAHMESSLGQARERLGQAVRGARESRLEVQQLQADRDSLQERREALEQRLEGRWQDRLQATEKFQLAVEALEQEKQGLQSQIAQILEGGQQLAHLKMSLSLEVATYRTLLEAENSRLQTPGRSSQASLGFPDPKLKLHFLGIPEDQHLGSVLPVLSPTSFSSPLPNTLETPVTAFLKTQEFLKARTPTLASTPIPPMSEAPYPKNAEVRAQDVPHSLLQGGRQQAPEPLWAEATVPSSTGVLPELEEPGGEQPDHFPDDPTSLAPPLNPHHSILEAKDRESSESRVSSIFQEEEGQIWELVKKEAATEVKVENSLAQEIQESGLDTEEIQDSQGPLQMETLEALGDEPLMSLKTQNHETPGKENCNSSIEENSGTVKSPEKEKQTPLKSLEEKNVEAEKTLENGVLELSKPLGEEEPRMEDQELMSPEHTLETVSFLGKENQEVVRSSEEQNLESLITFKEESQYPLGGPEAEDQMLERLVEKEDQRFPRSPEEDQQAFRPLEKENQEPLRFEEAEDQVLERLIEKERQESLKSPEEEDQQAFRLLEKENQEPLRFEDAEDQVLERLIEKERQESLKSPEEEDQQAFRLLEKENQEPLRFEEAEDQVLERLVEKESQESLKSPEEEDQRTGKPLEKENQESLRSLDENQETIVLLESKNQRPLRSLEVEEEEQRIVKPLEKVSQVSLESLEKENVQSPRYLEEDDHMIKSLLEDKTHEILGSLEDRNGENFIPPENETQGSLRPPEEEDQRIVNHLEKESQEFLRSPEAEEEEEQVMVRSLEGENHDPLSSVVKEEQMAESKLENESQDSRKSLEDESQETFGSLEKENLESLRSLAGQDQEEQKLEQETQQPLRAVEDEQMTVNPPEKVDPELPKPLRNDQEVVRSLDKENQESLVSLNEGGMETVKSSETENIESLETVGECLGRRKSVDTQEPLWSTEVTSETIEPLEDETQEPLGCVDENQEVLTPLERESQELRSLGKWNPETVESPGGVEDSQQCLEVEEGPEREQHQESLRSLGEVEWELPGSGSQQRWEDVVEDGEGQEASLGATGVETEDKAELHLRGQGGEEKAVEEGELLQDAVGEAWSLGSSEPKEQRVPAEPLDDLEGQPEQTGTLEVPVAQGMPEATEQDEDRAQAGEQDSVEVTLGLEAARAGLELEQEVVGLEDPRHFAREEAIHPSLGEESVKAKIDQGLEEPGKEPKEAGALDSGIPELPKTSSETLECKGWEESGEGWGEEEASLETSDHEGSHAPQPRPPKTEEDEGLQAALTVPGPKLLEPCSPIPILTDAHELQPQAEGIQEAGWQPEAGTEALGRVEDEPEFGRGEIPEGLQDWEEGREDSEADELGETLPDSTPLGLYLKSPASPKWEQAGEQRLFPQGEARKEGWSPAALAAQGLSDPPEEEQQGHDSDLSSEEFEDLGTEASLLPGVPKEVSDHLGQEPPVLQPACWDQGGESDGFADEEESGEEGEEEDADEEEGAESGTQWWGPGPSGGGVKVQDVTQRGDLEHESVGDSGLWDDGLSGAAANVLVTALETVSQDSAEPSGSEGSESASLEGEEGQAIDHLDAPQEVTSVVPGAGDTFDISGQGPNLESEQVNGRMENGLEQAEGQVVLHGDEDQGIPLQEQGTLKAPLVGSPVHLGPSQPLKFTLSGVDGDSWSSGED

These are yes or no findings as the source states them, for the method shown. In cells and extracts the contact can be indirect. Some results given as binding are weak or reduced against the parent protein; the word gives no strength.

Results on 1 substance are retold here after publication PMC7772359.

Regarding Nestin (from UniProt Q6P5H2 1-1864), the binding result was “binds”.
